1 molecule from paper PMC11658772 can be followed below.

No constants are given. Whether binding was seen depends on the method and setting. In cells and extracts the contact can be indirect. Some entries that bind do so weakly or less than the wild type. Where a sequence is shown, tags or fusion partners need not be part of it.

The target in assay [1] is T1, MSL1^GS-3xHA (K3S R4S F5G K6S W7G) (Drosophila melanogaster) (UniProt P50535).
T1 sequence: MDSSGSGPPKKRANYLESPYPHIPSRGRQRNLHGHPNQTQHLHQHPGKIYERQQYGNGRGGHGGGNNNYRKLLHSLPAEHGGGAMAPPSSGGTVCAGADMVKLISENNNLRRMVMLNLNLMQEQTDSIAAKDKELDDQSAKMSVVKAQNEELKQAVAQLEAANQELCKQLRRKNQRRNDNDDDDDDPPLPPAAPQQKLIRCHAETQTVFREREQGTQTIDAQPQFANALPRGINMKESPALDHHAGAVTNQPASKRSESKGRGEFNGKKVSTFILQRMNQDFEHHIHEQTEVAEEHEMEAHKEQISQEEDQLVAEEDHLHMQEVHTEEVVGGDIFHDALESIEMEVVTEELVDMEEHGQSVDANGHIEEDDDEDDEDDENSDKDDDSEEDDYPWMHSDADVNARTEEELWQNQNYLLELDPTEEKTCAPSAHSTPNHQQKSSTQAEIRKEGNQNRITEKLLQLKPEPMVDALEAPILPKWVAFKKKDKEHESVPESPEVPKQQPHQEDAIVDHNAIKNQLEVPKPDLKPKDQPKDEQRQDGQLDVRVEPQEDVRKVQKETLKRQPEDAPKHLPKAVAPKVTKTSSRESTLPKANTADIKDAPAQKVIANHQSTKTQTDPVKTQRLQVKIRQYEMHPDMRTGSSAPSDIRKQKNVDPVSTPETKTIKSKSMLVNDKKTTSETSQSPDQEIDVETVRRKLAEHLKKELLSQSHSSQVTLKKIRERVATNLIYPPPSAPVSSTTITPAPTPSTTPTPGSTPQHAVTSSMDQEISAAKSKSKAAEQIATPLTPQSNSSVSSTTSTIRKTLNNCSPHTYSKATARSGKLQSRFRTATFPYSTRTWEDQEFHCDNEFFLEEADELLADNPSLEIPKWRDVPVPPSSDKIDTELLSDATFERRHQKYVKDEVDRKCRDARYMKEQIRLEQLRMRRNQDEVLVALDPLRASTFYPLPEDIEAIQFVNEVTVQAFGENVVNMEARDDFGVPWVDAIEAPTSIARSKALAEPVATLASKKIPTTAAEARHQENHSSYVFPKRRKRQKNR
The experiment in a line: co-IP; Drosophila S2 cells co-transfected with MSL1*-3xHA and MSL2-3xFLAG, 48 hr; extract made with 420 mM NaCl; immunoprecipitation with anti-FLAG, anti-HA or mouse IgG (negative control) magnetic beads in buffer-150 (20 mM Tris-HCl pH 7.4, 150 mM NaCl, 10 mM MgCl2, 0.1% NP-40), overnight at 4 °C; immunoblot with anti-FLAG-HRP.

For assay [2], the target named is T2, MSL1^Δ24-39-3xHA (Drosophila melanogaster) (UniProt P50535).
T2 sequence: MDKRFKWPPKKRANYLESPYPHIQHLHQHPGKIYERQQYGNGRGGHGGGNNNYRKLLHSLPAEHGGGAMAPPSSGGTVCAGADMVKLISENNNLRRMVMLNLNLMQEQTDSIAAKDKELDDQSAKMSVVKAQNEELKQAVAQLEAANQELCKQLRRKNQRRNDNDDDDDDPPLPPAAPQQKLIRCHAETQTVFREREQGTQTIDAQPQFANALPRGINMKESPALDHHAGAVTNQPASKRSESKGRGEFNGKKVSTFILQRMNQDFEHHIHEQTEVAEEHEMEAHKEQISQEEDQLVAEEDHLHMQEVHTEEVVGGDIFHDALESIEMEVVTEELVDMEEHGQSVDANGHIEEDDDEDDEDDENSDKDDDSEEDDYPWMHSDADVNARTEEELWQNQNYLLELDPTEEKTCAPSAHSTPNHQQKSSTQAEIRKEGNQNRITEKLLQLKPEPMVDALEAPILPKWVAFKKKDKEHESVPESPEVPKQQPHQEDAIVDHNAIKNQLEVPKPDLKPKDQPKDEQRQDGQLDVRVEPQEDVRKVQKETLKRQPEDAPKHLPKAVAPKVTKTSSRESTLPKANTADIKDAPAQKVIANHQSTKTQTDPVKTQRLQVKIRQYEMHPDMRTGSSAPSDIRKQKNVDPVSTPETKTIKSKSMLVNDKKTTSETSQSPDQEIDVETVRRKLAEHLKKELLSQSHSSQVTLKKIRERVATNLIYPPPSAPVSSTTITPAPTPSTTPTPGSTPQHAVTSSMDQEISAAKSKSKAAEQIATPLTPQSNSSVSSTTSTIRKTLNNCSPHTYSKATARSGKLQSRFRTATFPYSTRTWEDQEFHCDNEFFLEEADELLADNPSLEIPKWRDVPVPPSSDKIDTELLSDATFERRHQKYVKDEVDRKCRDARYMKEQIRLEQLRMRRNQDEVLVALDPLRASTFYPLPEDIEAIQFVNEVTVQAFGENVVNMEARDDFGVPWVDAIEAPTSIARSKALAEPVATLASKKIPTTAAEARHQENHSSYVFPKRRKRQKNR
The description is as above.

B1: MSL2-3xFLAG (protein, UniProt P50534 1-773)
chain: MAQTAYLKVTRIAMRSASNLSKRRVEELNSGLGELRQLLSCVVCCQLLVDPYSPKGKRCQHNVCRLCLRGKKHLFPSCTQCEGCSDFKTYEENRMMAAQLLCYKTLCVHLLHSALFGELAGMRPQVARELVPRIKLPPKTTQEFIREGSNISDTFDIFLPQPDLPFLKDMPTSLPAETPPTSAVTTPELPYDHHLNISDIEAEAAATAEQGHFSPLPLLPTGSRMGMLSHAGQIVIATESSESGFMDQAWTDQVDLSGTVSVSKYTNSGNNFAVSYVMPTSATTKFDPQELQIGQVVQMADSTQLAVLAAVEETVETSTQLTVLSTTVEETVETSTQLEVLTSAEEPNEISDQLANLQVEESDEALVEETVEEAEGTSIPSEVVAEHMEEDQHLDVHTSQSPTQTEMEEAVEEHVATKTQLGHVQTELQDAESLQKDFEDAKAAAEEAKEKEKDLHAISAELQKEDSDEPTLKRKRTRTLKASQAAKIEPVPSEVKTKVQSGKGALRRIRGKDKEEKVKPPKPKCRCGISGSSNTLTTCRNSRCPCYKSYNSCAGCHCVCCKNPHKEDYVESDEDDDLEDFEMPKDVPEPMTQSEEPVVAEPRQEENSMAPPDSSAPISLVPLNNLQQSQHPLVLVQNEKGEYQGFNIFQGSKPLDPVTVGFTIRVQLQHTDGFGSLPQYAYIMPTIDPPNPPAPSLSPPPPPAPDREVIEPPAKKFRTSRTRRGRANFSALDTVDELVSGGSRSNSAAGDRSSATDNAHSLFEEIMSGSDDL
With B1, the binding entry in assay [1] and in assay [2] was “binds” in each case.
